From article PMC9742255
These are yes or no findings as the source states them, for the method shown. In cells and extracts the contact can be indirect. Some binding calls cover weakened binding; strength is not graded here.

By UniProt entry, the sequences of proteins in these tests, tags left out.
UniProt P17026: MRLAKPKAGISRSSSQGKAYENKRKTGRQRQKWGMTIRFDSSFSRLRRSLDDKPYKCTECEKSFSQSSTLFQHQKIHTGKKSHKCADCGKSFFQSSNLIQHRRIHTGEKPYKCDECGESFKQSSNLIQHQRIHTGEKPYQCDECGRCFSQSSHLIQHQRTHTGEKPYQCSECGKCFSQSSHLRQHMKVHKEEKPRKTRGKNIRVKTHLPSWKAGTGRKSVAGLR
UniProt O15379: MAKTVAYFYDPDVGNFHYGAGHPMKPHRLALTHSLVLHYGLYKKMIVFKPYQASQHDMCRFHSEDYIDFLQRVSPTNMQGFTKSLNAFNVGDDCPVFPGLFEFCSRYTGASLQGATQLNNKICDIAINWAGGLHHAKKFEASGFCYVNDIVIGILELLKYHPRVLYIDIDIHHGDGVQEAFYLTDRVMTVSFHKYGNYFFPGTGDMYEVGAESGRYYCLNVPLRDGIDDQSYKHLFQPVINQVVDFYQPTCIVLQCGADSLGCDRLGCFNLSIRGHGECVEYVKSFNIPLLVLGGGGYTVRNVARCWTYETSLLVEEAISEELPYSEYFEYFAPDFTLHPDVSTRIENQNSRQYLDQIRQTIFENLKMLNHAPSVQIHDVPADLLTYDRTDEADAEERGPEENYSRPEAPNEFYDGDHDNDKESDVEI

Target: ZNF22 (human (endogenous in hCMEC/D3)) (UniProt P17026)
Assay: co-IP; endogenous proteins in cell lysate; protein A/G-MagBeads coupled with anti-ZNF22 and anti-HDAC3 antibodies overnight at 4°C; non-specific IgG as control; Western blot

Substance: HDAC3 (from UniProt O15379 1-428) (enzyme)
- binding: binds
